# PubChem BioAssay (NCATS)
# The chains behind the UniProt entries cited, without tags or fusion partners. Where a name states a change or a piece, a line headed by the entry shows the natural chain unless it says otherwise.
# UniProt Q99549: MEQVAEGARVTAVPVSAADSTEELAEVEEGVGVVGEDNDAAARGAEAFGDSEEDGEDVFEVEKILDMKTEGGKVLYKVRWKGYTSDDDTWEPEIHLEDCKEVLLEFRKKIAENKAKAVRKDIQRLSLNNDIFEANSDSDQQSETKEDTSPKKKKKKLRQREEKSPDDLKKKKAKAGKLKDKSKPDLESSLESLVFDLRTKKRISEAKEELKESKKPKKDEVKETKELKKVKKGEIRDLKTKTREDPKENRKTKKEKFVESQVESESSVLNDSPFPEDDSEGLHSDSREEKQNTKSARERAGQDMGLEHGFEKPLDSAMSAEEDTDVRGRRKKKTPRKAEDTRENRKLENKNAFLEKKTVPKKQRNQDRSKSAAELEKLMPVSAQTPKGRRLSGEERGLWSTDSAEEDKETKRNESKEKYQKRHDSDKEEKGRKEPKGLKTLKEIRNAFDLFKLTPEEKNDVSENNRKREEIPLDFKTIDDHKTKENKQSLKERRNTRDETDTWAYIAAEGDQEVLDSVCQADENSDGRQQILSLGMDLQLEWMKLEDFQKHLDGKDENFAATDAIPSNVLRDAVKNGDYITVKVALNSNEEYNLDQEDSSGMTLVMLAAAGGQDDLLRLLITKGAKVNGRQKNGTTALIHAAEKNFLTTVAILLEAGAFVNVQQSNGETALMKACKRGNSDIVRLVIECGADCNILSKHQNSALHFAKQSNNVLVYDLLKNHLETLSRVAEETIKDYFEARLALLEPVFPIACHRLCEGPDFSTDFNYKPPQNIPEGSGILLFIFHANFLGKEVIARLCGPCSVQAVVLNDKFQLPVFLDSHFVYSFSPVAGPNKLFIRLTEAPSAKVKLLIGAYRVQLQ
# UniProt O94782: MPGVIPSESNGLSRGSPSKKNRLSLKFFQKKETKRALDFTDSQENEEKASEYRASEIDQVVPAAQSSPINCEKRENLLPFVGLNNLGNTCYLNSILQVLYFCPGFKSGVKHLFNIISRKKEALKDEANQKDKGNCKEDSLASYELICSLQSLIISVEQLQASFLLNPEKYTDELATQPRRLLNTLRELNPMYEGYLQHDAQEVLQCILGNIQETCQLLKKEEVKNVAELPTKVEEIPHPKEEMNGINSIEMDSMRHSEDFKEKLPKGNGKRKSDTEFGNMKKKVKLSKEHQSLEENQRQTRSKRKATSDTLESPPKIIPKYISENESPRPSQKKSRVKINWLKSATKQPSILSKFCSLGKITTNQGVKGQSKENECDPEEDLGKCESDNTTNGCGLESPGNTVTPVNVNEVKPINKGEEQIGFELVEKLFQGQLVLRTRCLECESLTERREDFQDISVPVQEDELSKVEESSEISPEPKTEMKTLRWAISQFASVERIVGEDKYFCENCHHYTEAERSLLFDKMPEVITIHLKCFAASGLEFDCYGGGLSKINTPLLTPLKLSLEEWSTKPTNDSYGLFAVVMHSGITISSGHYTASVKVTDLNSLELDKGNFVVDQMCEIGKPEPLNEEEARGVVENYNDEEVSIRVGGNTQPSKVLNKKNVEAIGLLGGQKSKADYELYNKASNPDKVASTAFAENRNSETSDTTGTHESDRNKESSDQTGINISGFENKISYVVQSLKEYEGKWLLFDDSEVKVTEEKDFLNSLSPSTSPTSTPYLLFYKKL
# UniProt P10275: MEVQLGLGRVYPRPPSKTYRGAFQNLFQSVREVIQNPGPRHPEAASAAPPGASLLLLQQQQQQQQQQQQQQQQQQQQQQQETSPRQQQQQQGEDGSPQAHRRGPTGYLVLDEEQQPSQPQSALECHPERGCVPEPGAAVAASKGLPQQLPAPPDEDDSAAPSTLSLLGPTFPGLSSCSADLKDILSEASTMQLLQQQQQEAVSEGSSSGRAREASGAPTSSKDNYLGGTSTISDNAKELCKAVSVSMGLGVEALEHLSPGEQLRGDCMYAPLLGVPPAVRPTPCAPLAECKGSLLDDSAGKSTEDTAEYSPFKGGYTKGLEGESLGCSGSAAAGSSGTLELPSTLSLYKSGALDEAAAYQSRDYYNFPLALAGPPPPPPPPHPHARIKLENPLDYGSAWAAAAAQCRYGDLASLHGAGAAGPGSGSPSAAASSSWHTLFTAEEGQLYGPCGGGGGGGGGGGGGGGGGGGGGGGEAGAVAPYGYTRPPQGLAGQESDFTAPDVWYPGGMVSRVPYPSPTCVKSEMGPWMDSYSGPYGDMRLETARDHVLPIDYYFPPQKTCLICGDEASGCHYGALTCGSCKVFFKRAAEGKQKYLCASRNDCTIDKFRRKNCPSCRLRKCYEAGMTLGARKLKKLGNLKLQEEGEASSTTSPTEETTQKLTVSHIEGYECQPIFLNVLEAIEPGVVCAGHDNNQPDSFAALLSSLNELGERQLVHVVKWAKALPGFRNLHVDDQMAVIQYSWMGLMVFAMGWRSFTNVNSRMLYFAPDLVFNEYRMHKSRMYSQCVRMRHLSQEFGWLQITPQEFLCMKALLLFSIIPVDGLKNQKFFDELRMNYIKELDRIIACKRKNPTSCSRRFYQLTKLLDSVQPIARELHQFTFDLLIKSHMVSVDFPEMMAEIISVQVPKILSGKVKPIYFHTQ
# UniProt P19793: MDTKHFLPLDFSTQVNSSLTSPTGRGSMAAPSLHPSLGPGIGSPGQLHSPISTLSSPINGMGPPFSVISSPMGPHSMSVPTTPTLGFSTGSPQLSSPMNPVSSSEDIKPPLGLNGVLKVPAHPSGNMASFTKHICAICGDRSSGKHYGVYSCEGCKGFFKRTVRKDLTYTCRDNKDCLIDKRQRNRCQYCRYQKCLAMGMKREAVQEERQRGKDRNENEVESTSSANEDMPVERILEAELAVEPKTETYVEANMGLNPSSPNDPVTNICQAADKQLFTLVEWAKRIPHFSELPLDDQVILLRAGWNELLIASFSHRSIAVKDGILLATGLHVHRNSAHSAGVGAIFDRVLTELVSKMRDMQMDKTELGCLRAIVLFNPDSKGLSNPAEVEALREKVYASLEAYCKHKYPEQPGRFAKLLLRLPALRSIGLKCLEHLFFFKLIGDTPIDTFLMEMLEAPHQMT
# UniProt P10828: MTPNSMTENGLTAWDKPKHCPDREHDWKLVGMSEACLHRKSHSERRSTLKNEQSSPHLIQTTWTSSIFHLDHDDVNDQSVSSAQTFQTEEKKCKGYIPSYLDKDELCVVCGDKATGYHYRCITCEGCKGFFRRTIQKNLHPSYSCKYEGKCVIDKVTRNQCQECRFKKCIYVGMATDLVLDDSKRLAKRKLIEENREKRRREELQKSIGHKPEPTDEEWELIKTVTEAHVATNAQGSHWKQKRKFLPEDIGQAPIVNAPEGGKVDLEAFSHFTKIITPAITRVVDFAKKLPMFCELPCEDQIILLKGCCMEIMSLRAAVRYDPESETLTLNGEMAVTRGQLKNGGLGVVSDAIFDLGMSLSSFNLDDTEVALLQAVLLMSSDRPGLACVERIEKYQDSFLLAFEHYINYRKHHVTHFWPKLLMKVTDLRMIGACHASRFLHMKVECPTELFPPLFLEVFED
# UniProt P36969, whole entry, looked up: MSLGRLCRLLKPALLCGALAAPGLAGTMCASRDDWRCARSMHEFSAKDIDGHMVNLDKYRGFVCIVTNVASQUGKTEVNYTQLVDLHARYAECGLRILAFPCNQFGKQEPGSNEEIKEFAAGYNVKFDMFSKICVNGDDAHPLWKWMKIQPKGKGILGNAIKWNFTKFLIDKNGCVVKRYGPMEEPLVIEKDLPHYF
# Several values for one entry are separate records, joined by “and”; a condition that tells them apart may be missing. Identical values can stand only once. This list was built around the results that the source calls inconclusive (neither active nor inactive); the mix of calls is not that of the screen. For some of these results: Potencies of inconclusive entries are doubtful fits and often do not repeat. For some of these results: “Side channel” marks fits to a control or component signal instead of the main read-out. Activity calls are given as the source filed them. Unless noted, calls follow the shape of the dose curve; as a rule, active = well fitted curve in the direction sought with a large enough effect; inconclusive = small, poorly fitted or top-dose-only effect, or another doubt; inactive = no such curve, though single readings can be large; an effect the other way counts as inactive or inconclusive.
# Assays:
# [1] = Validation screen for small molecules that induce DNA re-replication in MCF 10A normal breast cells (AID 463097); also: potency is read from the fitted curve at half-maximal effect; nearly all actives have a fitted effect of over 60% in size
# Outline: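 MCF 10A cells exposed to compound 48 hr at 37 C, 5% CO2, then Hoechst-stained 40 min. Laser-scanning imaging of nuclear DNA content (405 nm ex, 500-530 nm em); re-replication scored as rise in nuclei with elevated fluorescence intensity.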
# [2] = Quantitative high throughput screen for delayed death inhibitors of the malarial parasite plastid, 96 hour incubation (AID 488745);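 also: luciferase-expressing P. falciparum in erythrocytes at 2% hematocrit and 0.1% parasitemia; % is scaled to controls: 0 for no effect and ±100 for the full control effect; nearly all actives have a fitted effect of over 70% in size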
# Outline: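 Readout is firefly luciferase luminescence from an integrated reporter in P. falciparum; lower signal marks inhibited growth. Cultures at 2% hematocrit and 0.1% parasitemia were treated with compound across two generations (96 h, 37 C, 5% CO2).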
# [3] = biological target: M-phase phosphoprotein 8 (Homo sapiens) (UniProt Q99549); experiment: qHTS Validation Assay for Inhibitors for MPP8 Chromodomain Interactions with Methylated Histone Tails (AID 488949); also: potency is read from the fitted curve at half-maximal effect; nearly all actives have a fitted effect of over 55% in size
# Outline: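 MPP8 (50 nM) was pre-bound to 50 nM biotinylated H3(1-18)K9me3 peptide in PBS pH 7.4 with 0.01% Tween-20. Compounds were then added for 30 min at room temperature, and complex disruption was read by AlphaScreen with streptavidin donor and nickel-chelate acceptor beads.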
# [4] = biological target: Ubiquitin carboxyl-terminal hydrolase 1 (Homo sapiens) (UniProt O94782); experiment: Inhibitors of USP1/UAF1: Pilot qHTS (AID 504865); also: potency is read from the fitted curve at half-maximal effect; nearly all actives have a fitted effect of over 35% in size
# Outline: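 USP1/UAF1 complex at 1 nM preincubated 15 min at room temperature with compound, then Ub-Rho substrate added at 150 nM final. Fluorescence (480/540 nm) read kinetically in 50 mM HEPES pH 7.8, 0.5 mM EDTA, 1 mM TCEP, 0.1 mg/ml BSA, 0.01% Tween-20.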
# [5] = biological target: Androgen receptor (Homo sapiens) (UniProt P10275); experiment: qHTS assay for small molecule antagonists of androgen receptor signaling (AID 588516; active = well fitted curve in the direction sought with a large enough effect in the signal ratio, with a control signal flat, not every such curve was filed as active; inconclusive = small, poorly fitted or top-dose-only effect, or effect the other way, or a change in a side signal; inactive = no such curve, though single readings can be large or run the other way; the % refers to the signal ratio; also: % is scaled to controls: 0 for no effect and ±100 for the full control effect); conditions: AR-UAS-bla HEK293, beta-lactamase ratio, antagonist mode, 16 h; at 76.8 µM (top of the series)
# Outline: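 Cells were plated and incubated 5 h, compounds added in titration, then R1881 (10 nM final) as agonist. After 16 h at 37 C, CCF4 substrate was loaded for 2 h at room temperature and fluorescence measured.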
# [6] = biological target: Peroxisome proliferator-activated receptor gamma (Homo sapiens) (UniProt P37231); experiment: qHTS assay for small molecule agonists of peroxisome proliferator-activated receptor gamma signaling (AID 588536; active = well fitted curve in the direction sought with a large enough effect in the signal ratio, with a control signal flat, not every such curve was filed as active; inconclusive = small, poorly fitted or top-dose-only effect, or effect the other way, or a change in a side signal; inactive = no such curve, though single readings can be large or run the other way; the % refers to the signal ratio;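 also: 0% = DMSO basal wells and 100% = rosiglitazone at 2 µM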); conditions: HEK293 PPARg-UAS-bla, beta-lactamase ratio, 16 h; activation: at 76.7 µM (top of the series), percent of rosiglitazone response, DMSO as zero
# Outline: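 Using GeneBLAzer HEK293 cells, response was quantified by CCF4 fluorescence and normalized between basal DMSO (0%) and rosiglitazone 2 uM (100%); curves yielded half-maximal stimulation concentration and efficacy.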
# [7] = biological target: Vitamin D3 receptor (Homo sapiens) (UniProt P11473); experiment: qHTS assay for small molecule antagonists of vitamin D receptor signaling (AID 588541; calls by dose curve;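 also: receptor activated by calcitriol during compound treatment; % is scaled to controls: 0 for no effect and ±100 for the full control effect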); conditions: HEK293T VDR-UAS-bla, beta-lactamase ratio, antagonist mode; activity change, negative = inhibition: at 76.7 µM (top of the series)
# [8] = biological target: Retinoic acid receptor RXR-alpha (Homo sapiens) (UniProt P19793); experiment: qHTS assay for small molecule antagonists of retinoid X receptor alpha signaling (AID 588546; active = well fitted inhibition curve with a large enough effect in the signal ratio, with a control signal flat, not every such curve was filed as active; inconclusive = small, poorly fitted or top-dose-only effect, or effect the other way, or a change in a side signal; inactive = no such curve, though single readings can be large or run the other way; the % refers to the signal ratio;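 also: cells stimulated with 9-cis-retinoic acid as agonist; % is scaled to controls: 0 for no effect and ±100 for the full control effect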); conditions: HEK293T RXRa-UAS-bla, beta-lactamase ratio, antagonist mode
# Outline: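 Beta-lactamase reporter inhibition, read as CCF4 fluorescence ratio (ex 405, em 460/530 nm) after 2 h at RT. HEK293T UAS-bla cells, 2500/well, were stimulated with 9-cis-RA at 500 or 100 nM final alongside test compound for 18 h at 37 C.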
# [9] = biological target: Thyroid hormone receptor beta (Homo sapiens) (UniProt P10828); experiment: qHTS assay for small molecule antagonists of thyroid hormone receptor beta signaling (AID 588547; active = well fitted inhibition curve with a large enough effect in the signal ratio, with a control signal flat, not every such curve was filed as active; inconclusive = small, poorly fitted or top-dose-only effect, or effect the other way, or a change in a side signal; the % refers to the signal ratio;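 also: cells stimulated with 0.4 nM T3 agonist during compound exposure; % is scaled to controls: 0 for no effect and ±100 for the full control effect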); conditions: TR-UAS-bla HEK293, beta-lactamase ratio, antagonist mode, 18 h
# Outline: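 Inhibition of T3-driven (0.4nM final) beta-lactamase reporter activity was measured over 0.59 nM to 92 uM compound after 18 h at 37 C. The cells were GripTite HEK293 TR-UAS-bla in charcoal/dextran-stripped serum, with CCF4 ratio read-out and IC50 from Hill fits.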
# [10] = qHTS assay for small molecule agonists of the antioxidant response element (ARE) signaling pathway (AID 651741; active = well fitted activation curve with a large enough effect in the signal ratio; inconclusive = small, poorly fitted or top-dose-only effect, or effect the other way, or a change in a side signal; the % refers to the signal ratio; also: potency is read from the fitted curve at half-maximal effect); conditions: HepG2 ARE-bla reporter, beta-lactamase FRET ratio, 16 h; activation: at 96 µM (top of the series)
# Outline: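 Beta-lactamase reporter under ARE control in HepG2 cells, 2,000 per well, was induced by 16 h compound treatment at 37 C. Read-out was fluorescence from LiveBLAzer B/G FRET substrate after 2 h at room temperature.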
# [11] = qHTS assay for small molecule activators of the p53 signaling pathway (AID 651743; active = well fitted activation curve with a large enough effect in the signal ratio, not every such curve was filed as active; inconclusive = small, poorly fitted or top-dose-only effect, or a change in a side signal; the % refers to the signal ratio; also: potency is read from the fitted curve at half-maximal effect); conditions: HCT-116 p53RE-bla, beta-lactamase FRET ratio, 16 h; activation: stronger effect = higher value
# Outline: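 After 16 hours compound treatment at 37 C, HCT-116 cells stably expressing p53RE-driven beta-lactamase were loaded with LiveBLAzer B/G FRET substrate for 2 hours at room temperature. Fluorescence intensity served as the p53 activation read-out.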
# [12] = qHTS assay for small molecule agonists of the antioxidant response element (ARE) signaling pathway measured by Nrf2-dependant transcriptional activity (AID 720636; active = well fitted curve in the direction sought with a large enough effect in the repeat runs; inconclusive = weak or mixed curves; inactive = no such curve, though single readings can be large; an effect the other way counts as inactive or inconclusive;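 also: HepG2 cells with an ARE-driven luciferase reporter; % of control where 0% means no effect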)
# Outline: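 Nrf2-dependent transcription is measured in ARE-luc HepG2 cells: compound is applied for 16 hr at 37 C after a 6 hr attachment period, and luciferase activity is quantified by luminescence using ONE-Glo.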
# [13] = tested on: Zika virus NS2B-NS3 protease; experiment: Primary screen GU AMC qHTS for Zika virus inhibitors (AID 1347154); also: potency is read from the fitted curve at half-maximal effect; nearly all actives have a fitted effect of over 70% in size
# Outline: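 Fluorogenic AMC-substrate cleavage by noncovalent NS2B-NS3 protease complex (25 nM, pH 8.0 Tris buffer with Tween 20) followed for 15 minutes at room temperature (~20% conversion). Percent inhibition from ex340/em450 signal change, fitted by 4-parameter Hill equation.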
# [14] = qHTS to identify inhibitors of the type 1 interferon - major histocompatibility complex class I in skeletal muscle: primary screen against the NCATS Mechanism Interrogation Plate v5.0 (MIPE) Libary (AID 1347411); conditions: iHSKM cells + IFN-b, HiBiT-tagged MHC-I luminescence, 24 h; activity change, negative = inhibition: at 45.8 µM (top of the series);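 also: plate controls were vehicle for no effect and reference inhibitor for full effect; nearly all actives have a fitted effect of over 65% in size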
# Outline: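 Seed engineered human myoblasts (HLA-B HiBit) in medium without dexamethasone containing 4 ng/ml IFN-beta; after 1 hr add compound titrations (top 46 uM final). Incubate 24 hrs at 37 C, lyse 10 min with HiBiT reagent, read luminescence.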
# [15] = Primary qHTS for inhibitors of nuclear receptor binding SET domain protein 2 (NSD2) in an RCH-ACV wild type WT cells (2C) (AID 1645877); also: potency is read from the fitted curve at half-maximal effect; nearly all actives have a fitted effect of over 70% in size
# [16] = biological target: Phospholipid hydroperoxide glutathione peroxidase GPX4 (Homo sapiens) (UniProt P36969); experiment: Primary qHTS Assay for Inhibitors of Recombinant Selenoprotein Glutathione Peroxidase 4 (GPX4) (AID 1845192); also: potency is read from the fitted curve at half-maximal effect; nearly all actives have a fitted effect of over 65% in size
# Outline: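 NADPH consumption followed by fluorescence at 340/450 nm, t=0 and after 15 min at room temperature. Reaction started with cumene hydroperoxide (0.5 mM final) after 30 min compound–GPX4 preincubation; final 200 nM GPX4, 100 nM GR, 1 mM GSH, 0.5 mM NADPH.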
structure (smiles),measurement,setting,value
CN(CCOc1ccc(C[C@H](Nc2ccccc2C(=O)c2ccccc2)C(=O)O)cc1)c1ccccn1,Potency,[1],"inconclusive: 10 µM [activator, partial curve]"
same,Potency,[2],inactive
same,Potency,[3],"inconclusive: 39.8 µM [inhibitor, partial curve]"
same,Potency,[4],"inconclusive: 56.2 µM [inhibitor, partial curve, poor fit]"
same,"activity change, negative = inhibition",[5],inconclusive: -42.7%
same,activation,[6],inconclusive: -12.3%
same,"activity change, negative = inhibition",[7],inconclusive: -31.7%
same,max response,[8],inconclusive: -27.3%
same,activity change % (negative = inhibition),[9],inconclusive: -45.8%
same,Potency,[10],"inconclusive: 68.6 µM [activator, single point]"
same,Potency,[11],"inconclusive: 44.7 µM [side channel, falling, partial curve, poor fit]"
same,Potency,[12],inactive
same,Potency,[13],"inconclusive: 23.8 µM [inhibitor, partial curve]"
same,Potency,[14],inactive
same,Potency,[15],"inconclusive: 33.2 µM [inhibitor, single point]"
same,Potency,[16],"inconclusive: 10.1 µM [inhibitor, partial curve, poor fit] and inconclusive: 8.06 µM [inhibitor, partial curve]"
